Screening data

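A cell-free redox-cycling test in which DTT oxidation is coupled to Amplex Red/HRP and read by fluorescence after 15 min preincubation and 30 min more.
Each compound was tested as a concentration series, mostly reaching 53.8 µM at the top.
The number is the fitted potency (AC50), where a lower value means stronger redox-cycling activity.
Under the general rule, inconclusive means a small, poorly fitted or top-dose-only effect; all rows here are inconclusive.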

Values are in nM.
All entries here are filed as inconclusive.
These entries are mostly ones the record files as inconclusive; other results of the assay are not listed here.
Potencies fitted to partial, single-point or poorly fitting curves are rough.
Some entries filed as inconclusive have a full curve.

structure | fitted potency (nM) | curve
CC12CCC3C(C)(C)C(O)CCC3(C)C1Cc1c(oc(C(=O)O)cc1=O)O2 (stereo not given) | 16481 | activator, partial curve, poor fit
Cc1[nH]c(/C=C2\C(=O)Nc3ccc(S(=O)(=O)N(C)c4cccc(Cl)c4)cc32)c(C)c1C(=O)N1CCN(C)CC1 | 2668 | activator, full curve, poor fit
COc1ccc(CCC(=O)c2c(O)cc(O[C@@H]3O[C@H](CO)[C@@H](O)[C@H](O)[C@H]3O[C@@H]3O[C@@H](C)[C@H](O)[C@@H](O)[C@H]3O)cc2O)cc1O | 29934 | activator, single point
Cn1cnc2c(F)c(Nc3ccc(Br)cc3Cl)c(C(=O)NOCCO)cc21 | 29934 | activator, single point
CC1=CC[C@]2(C(=O)O[C@@H]3O[C@H](CO[C@@H]4O[C@H](CO)[C@@H](O[C@@H]5O[C@@H](C)[C@H](O)[C@@H](O)[C@H]5O)[C@H](O)[C@H]4O)[C@@H](O)[C@H](O)[C@H]3O)CC[C@]3(C)C(CCC4[C@@]5(C)C[C@@H](O)[C@H](O)[C@@](C)(CO)C5CC[C@]43C)C2C1C (stereo not given in full) | 2255 | activator, partial curve, poor fit
COc1c2c(c(C)c3c1C(=O)OC3)OC1(C)CC(O)C34OC(OC)(CC(OC(C)=O)C3(C)C1C2)OC4(C)C (stereo not given) | 5820 | activator, partial curve, poor fit
CC(=O)O[C@@H]1[C@@H](O)[C@H](O[C@H]2CC[C@]34C[C@]35CC[C@]3(C)[C@@H]([C@@]6(C)CC[C@@H](C(C)(C)O)O6)[C@@H](O)C[C@@]3(C)[C@@H]5C[C@H](O[C@@H]3O[C@H](CO)[C@@H](O)[C@H](O)[C@H]3O)[C@H]4C2(C)C)OC[C@H]1O | 1683 | activator, full curve, poor fit
CCOC(=O)C(CCc1ccccc1)NC(C)C(=O)N1Cc2ccccc2CC1C(=O)O (stereo not given) | 21192 | activator, partial curve, poor fit
CC(O)C1CCC2C3CCC4CC(OC5OC(C(=O)O)C(O)C(O)C5O)CCC4(C)C3CCC12C (stereo not given) | 1889 | activator, full curve, poor fit
CCC(C)/C=C(C)/C=C/C1=CC2=C(Cl)C(=O)C(C)(OC(C)=O)C(=O)C2=CN1C(CCC(=O)O)C(=O)O (stereo not given) | 13029 | activator, partial curve, poor fit
CN(C1CCc2c(c3ccccc3n2CC(=O)O)C1)S(=O)(=O)c1ccc(F)cc1 (stereo not given) | 23778 | activator, partial curve, poor fit
CCOc1ccc2ccccc2c1C(=O)N[C@@H]1C(=O)N2[C@@H]1SC(C)(C)[C@@H]2C(=O)O | 29934 | activator, partial curve, poor fit
CC1OC(OCC2OC(OC3CCC4(C)C(CCC5(C)C4CC=C4C6CC(C)(C)CCC6(C(=O)OC6OC(CO)C(O)C(O)C6O)CCC45C)C3(C)CO)C(O)C(O)C2O)C(O)C(O)C1O (stereo not given) | 2255 | activator, partial curve, poor fit
CN(C)CCOc1cc(-c2cn[nH]c2)ccc1NC(=O)C1COc2ccccc2O1 (stereo not given) | 37685 | activator, single point
COc1ccc(/C=C/C(=O)O[C@@H]2[C@@H](OC(C)=O)[C@@H](OC(C)=O)[C@H](O[C@H]3[C@@H]4C=CO[C@@H](O[C@@H]5O[C@H](CO)[C@@H](O)[C@H](O)[C@H]5O)[C@@H]4[C@@]4(CO)O[C@@H]34)O[C@H]2C)cc1O | 1410 | activator, full curve, poor fit
COc1cc(N2CCC(N3CCN(C)CC3)CC2)ccc1Nc1ncc(Cl)c(Nc2ccccc2S(=O)(=O)C(C)C)n1 | 4228 | activator, full curve, poor fit
COc1ccc(Cl)cc1C(=O)NCCc1ccc(S(=O)(=O)NC(=O)NC2CCCCC2)cc1 | 5973 | activator, partial curve, poor fit
C/C=C1/CC2C(=O)Nc3cc(O)c(OC)cc3C(=O)N2C1 (stereo not given) | 26121 | activator, partial curve, poor fit
CCC(C)(Oc1ccc(C2(c3ccc(OC(C)(CC)C(=O)O)cc3)CCCCC2)cc1)C(=O)O (stereo not given) | 4744 | activator, full curve, poor fit
C=C1C(O)C(O)C2(CC3C(C)=CCC4C(C)(C(=O)O)CCCC34C)OC2C1O (stereo not given) | 23280 | activator, single point
COc1cc(N2CCC(N3CCN(C)CC3)CC2)ccc1Nc1ncnc(Nc2ccccc2S(=O)(=O)C(C)C)n1 | 3359 | activator, full curve
NCCCC[C@H](NC(=O)[C@@H]1Cc2ccccc2CN1C(=O)CCC(=O)c1ccccc1)C(=O)NCC(c1ccccc1)c1ccccc1 | 3769 | activator, partial curve, poor fit
CC1(C)CC[C@]2(C(=O)O[C@@H]3O[C@H](CO)[C@@H](O)[C@H](O)[C@H]3O)CC[C@]3(C)C(=CCC4[C@@]5(C)CC[C@H](OC6OC(C(=O)O)C(OC7OC(CO)C(O)C(O)C7O)C(O)C6O)C(C)(C)C5CC[C@]43C)C2C1 (stereo not given in full) | 1268 | activator, partial curve, poor fit
CC(=O)O[C@@H]1CC2C(C)(C)C(=O)C=C[C@]2(C)C2CC[C@@]3(C)[C@H](c4ccoc4)OC(=O)[C@H]4O[C@]43[C@@]21C (stereo not given in full) | 4120 | activator, partial curve, poor fit
C[C@H]1[C@H](C)CC[C@]2(C(=O)OC3OC(CO)C(O)C(O)C3O)CC[C@]3(C(=O)O)C(=CCC4[C@@]5(C)CC[C@H](O[C@@H]6O[C@@H](C)[C@H](OC7OC(CO)C(O)C(O)C7O)[C@@H](O)[C@H]6O)C(C)(C)C5CC[C@]43C)[C@H]12 (stereo not given in full) | 10072 | activator, partial curve, poor fit
Cn1cc(-c2ccc3nnc(C(F)(F)c4ccc5ncccc5c4)n3n2)cn1 | 16833 | activator, partial curve, poor fit
CC1(C)Cc2c(-c3ccccc3)c(-c3ccc(Cl)cc3)c(CC(=O)O)n2C1 | 26679 | activator, partial curve, poor fit
CN1CCN(CCOc2cc(OC3CCOCC3)c3c(Nc4c(Cl)ccc5c4OCO5)ncnc3c2)CC1 | 7519 | activator, full curve, poor fit
O=c1cc(CN2CCOCC2)occ1OCCCCCSc1ccnc2cc(C(F)(F)F)ccc12 | 3359 | activator, full curve, poor fit

For reference, 2 entries once more:

{"structure": "COc1c2c(c(C)c3c1C(=O)OC3)OC1(C)CC(O)C34OC(OC)(CC(OC(C)=O)C3(C)C1C2)OC4(C)C", "stereo": "stereo not given", "fitted potency (nM)": "5820", "curve": "activator, partial curve, poor fit"}
{"structure": "CC(O)C1CCC2C3CCC4CC(OC5OC(C(=O)O)C(O)C(O)C5O)CCC4(C)C3CCC12C", "stereo": "stereo not given", "fitted potency (nM)": "1889", "curve": "activator, full curve, poor fit"}

Data taken from PubChem BioAssay AID1845223, deposited by NCATS (2023).